In paper doi:10.1101/2025.02.13.638052:
These are yes or no findings as the source states them, for the method shown. Binding seen in cells or lysates may run through a third protein. Some results given as binding are weak or reduced against the parent protein; the word gives no strength. Where a sequence is shown, tags or fusion partners need not be part of it.

Chains of the proteins cited; added tags and fusions are not shown.
UniProt P32121: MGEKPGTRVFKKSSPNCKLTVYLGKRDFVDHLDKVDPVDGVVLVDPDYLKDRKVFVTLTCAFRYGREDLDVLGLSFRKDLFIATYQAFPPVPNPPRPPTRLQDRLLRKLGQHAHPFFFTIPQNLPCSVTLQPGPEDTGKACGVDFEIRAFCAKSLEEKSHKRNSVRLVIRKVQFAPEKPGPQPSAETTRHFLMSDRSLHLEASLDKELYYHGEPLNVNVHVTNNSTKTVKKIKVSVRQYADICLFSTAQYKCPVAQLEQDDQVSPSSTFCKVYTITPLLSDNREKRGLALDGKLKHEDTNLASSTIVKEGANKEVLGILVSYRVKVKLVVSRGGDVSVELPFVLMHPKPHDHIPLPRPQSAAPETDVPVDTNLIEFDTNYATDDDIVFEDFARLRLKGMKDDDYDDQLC

Target: T1, human FSHR C-terminally fused to the luciferase from the sea pansy Renilla reniformis (FSHR-RLuc8) (human) (UniProt P23945)
T1 sequence: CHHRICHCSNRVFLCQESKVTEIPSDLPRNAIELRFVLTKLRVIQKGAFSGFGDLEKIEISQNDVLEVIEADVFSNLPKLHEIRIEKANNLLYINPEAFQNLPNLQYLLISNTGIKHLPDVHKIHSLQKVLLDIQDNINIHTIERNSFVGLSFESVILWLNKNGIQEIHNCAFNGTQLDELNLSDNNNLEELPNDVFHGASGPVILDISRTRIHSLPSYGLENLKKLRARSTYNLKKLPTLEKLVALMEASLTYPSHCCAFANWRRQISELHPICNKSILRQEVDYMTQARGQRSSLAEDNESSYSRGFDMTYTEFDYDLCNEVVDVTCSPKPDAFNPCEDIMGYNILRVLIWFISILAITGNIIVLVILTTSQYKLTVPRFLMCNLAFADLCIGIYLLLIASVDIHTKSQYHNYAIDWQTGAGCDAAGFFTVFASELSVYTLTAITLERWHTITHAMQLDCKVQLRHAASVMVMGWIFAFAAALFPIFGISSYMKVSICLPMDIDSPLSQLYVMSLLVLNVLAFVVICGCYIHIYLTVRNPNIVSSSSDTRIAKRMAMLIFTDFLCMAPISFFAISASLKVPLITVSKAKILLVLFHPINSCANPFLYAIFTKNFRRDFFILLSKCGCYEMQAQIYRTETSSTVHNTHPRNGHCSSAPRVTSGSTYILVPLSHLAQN
Test: FRET or BRET

- binding: binds
Substance: Ypet-β-arrestin 2 (from UniProt P32121 1-409)
